Data reported in the supplement of paper PMC8728848.
Some of the results follow.

Assays:
Assay in all cases: glycan array binding signal (z-score within array); higher = stronger binding
Settings in all cases: glycan notation: IUPAC condensed, linker removed
[1] = biological target: GlcNAc(b1-3)Gal(b1-4)GlcNAc(b1-3)Gal(b1-4)GlcNAc(b1-3)GalNAc
Method in brief: (§1)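 Glycan array data came from 3228 arrays in the Consortium for Functional Glycomics database, and only arrays with an available protein sequence were kept. Glycan names were put into IUPAC-condensed notation, and columns mapping to the same glycan were averaged. The binding signal is a within-array Z-score, averaged across arrays of one protein sequence run at different concentrations or buffers and across linkers. A negative Z-score can be read as non-binding.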

[2] = biological target: GlcNAc(b1-3)Gal(b1-4)GlcNAc(b1-3)GalNAc
Method in brief: as §1

[3] = biological target: GlcNAc(b1-3)Gal(b1-4)GlcNAc(b1-3)[GlcNAc(b1-3)Gal(b1-4)GlcNAc(b1-3)]GalNAc
Method in brief: as §1

[4] = biological target: GlcNAc(b1-3)Gal(b1-4)GlcNAc(b1-6)[Gal(b1-3)]GalNAc
Method in brief: as §1

[5] = biological target: GlcNAc(b1-3)Gal(b1-4)GlcNAc(b1-6)[GlcNAc(b1-3)Gal(b1-3)]GalNAc
Method in brief: as §1

[6] = biological target: GlcNAc(b1-3)Gal(b1-4)GlcNAc(b1-6)[GlcNAc(b1-3)]Gal(b1-4)GlcNAc
Method in brief: as §1

GlcNAc(b1-3)GalNAc = biological target: GlcNAc(b1-3)GalNAc
Method in brief: as §1

GlcNAc(b1-3)Man = biological target: GlcNAc(b1-3)Man
Method in brief: as §1

[7] = biological target: GlcNAc(b1-3)[GlcNAc(b1-4)][GlcNAc(b1-6)]GlcNAc
Method in brief: as §1

[8] = biological target: GlcNAc(b1-3)[GlcNAc(b1-6)]Gal(b1-4)GlcNAc
Method in brief: as §1

[9] = biological target: GlcNAc(b1-3)[GlcNAc(b1-6)]GalNAc
Method in brief: as §1

[10] = biological target: GlcNAc(b1-4)Gal(b1-4)GlcNAc
Method in brief: as §1

GlcNAc(b1-4)GlcNAc = biological target: GlcNAc(b1-4)GlcNAc
Method in brief: as §1

[11] = biological target: GlcNAc(b1-4)GlcNAc(b1-4)GlcNAc
Method in brief: as §1

[12] = biological target: GlcNAc(b1-4)GlcNAc(b1-4)GlcNAc(b1-4)GlcNAc(b1-4)GlcNAc
Method in brief: as §1

[13] = biological target: GlcNAc(b1-4)GlcNAc(b1-4)GlcNAc(b1-4)GlcNAc(b1-4)GlcNAc(b1-4)GlcNAc
Method in brief: as §1

[14] = biological target: GlcNAc(b1-4)[GlcNAc(b1-6)]GalNAc
Method in brief: as §1

[15] = biological target: GlcNAc(b1-6)Gal(b1-4)GlcNAc
Method in brief: as §1

GlcNAc(b1-6)GalNAc = biological target: GlcNAc(b1-6)GalNAc
Method in brief: as §1

[16] = biological target: GlcNAc6S(b1-3)Gal(b1-4)GlcNAc
Method in brief: as §1

Kdn(a2-3)Gal(b1-3)GalNAc = biological target: Kdn(a2-3)Gal(b1-3)GalNAc
Method in brief: as §1

Kdn(a2-3)Gal(b1-3)GlcNAc = biological target: Kdn(a2-3)Gal(b1-3)GlcNAc
Method in brief: as §1

Kdn(a2-3)Gal(b1-4)Glc = biological target: Kdn(a2-3)Gal(b1-4)Glc
Method in brief: as §1

Kdn(a2-3)Gal(b1-4)GlcNAc = biological target: Kdn(a2-3)Gal(b1-4)GlcNAc
Method in brief: as §1

[17] = biological target: Kdn(a2-3)Gal(b1-4)[Fuc(a1-3)]GlcNAc
Method in brief: as §1

Kdn(a2-6)Gal(b1-4)GlcNAc = biological target: Kdn(a2-6)Gal(b1-4)GlcNAc
Method in brief: as §1

[18] = biological target: Man(a1-2)Man(a1-2)Man(a1-3)Man
Method in brief: as §1

[19] = biological target: Man(a1-2)Man(a1-2)Man(a1-6)[Man(a1-3)]Man
Method in brief: as §1

Man(a1-2)Man(a1-3)Man = biological target: Man(a1-2)Man(a1-3)Man
Method in brief: as §1

[20] = biological target: Man(a1-2)Man(a1-3)[Man(a1-2)Man(a1-6)]Man
Method in brief: as §1

[21] = biological target: Man(a1-2)Man(a1-3)[Man(a1-2)Man(a1-6)]Man(a1-6)[Man(a1-2)Man(a1-2)Man(a1-3)]Man
Method in brief: as §1

[22] = biological target: Man(a1-2)Man(a1-3)[Man(a1-2)Man(a1-6)]Man(a1-6)[Man(a1-2)Man(a1-2)Man(a1-3)]Man(b1-4)GlcNAc(b1-4)GlcNAc
Method in brief: as §1

[23] = biological target: Man(a1-2)Man(a1-3)[Man(a1-6)]Man(a1-6)[Man(a1-2)Man(a1-3)]Man(b1-4)GlcNAc(b1-4)GlcNAc
Method in brief: as §1

[24] = biological target: Man(a1-2)Man(a1-6)[Man(a1-3)]Man(a1-6)[Man(a1-2)Man(a1-2)Man(a1-3)]Man
Method in brief: as §1

[25] = biological target: Man(a1-2)Man(a1-6)[Man(a1-3)]Man(a1-6)[Man(a1-2)Man(a1-2)Man(a1-3)]Man(b1-4)GlcNAc(b1-4)GlcNAc
Method in brief: as §1

Man(a1-3)[Man(a1-6)]Man = biological target: Man(a1-3)[Man(a1-6)]Man
Method in brief: as §1

[26] = biological target: Man(a1-3)[Man(a1-6)]Man(a1-6)[Man(a1-2)Man(a1-3)]Man(b1-4)GlcNAc(b1-4)GlcNAc
Method in brief: as §1

[27] = biological target: Man(a1-3)[Man(a1-6)]Man(a1-6)[Man(a1-3)]Man
Method in brief: as §1

[28] = biological target: Man(a1-3)[Man(a1-6)]Man(a1-6)[Man(a1-3)]Man(b1-4)GlcNAc(b1-4)GlcNAc
Method in brief: as §1

[29] = biological target: Man(a1-3)[Man(a1-6)]Man(b1-4)GlcNAc(b1-4)GlcNAc
Method in brief: as §1

[30] = biological target: Man(a1-3)[Man(a1-6)]Man(b1-4)GlcNAc(b1-4)[Fuc(a1-6)]GlcNAc
Method in brief: as §1

Man(a1-6)Man = biological target: Man(a1-6)Man
Method in brief: as §1

Man(b1-4)GlcNAc = biological target: Man(b1-4)GlcNAc
Method in brief: as §1

MurNAc(b1-4)GlcNAc = biological target: MurNAc(b1-4)GlcNAc
Method in brief: as §1

Neu5Ac(a2-3)Gal = biological target: Neu5Ac(a2-3)Gal
Method in brief: as §1

B1: SJCP3842 (Schistosoma japonicum) (protein)
chain: MFKMRIINLVNISTVLLLINLLQTKSRLVGKENGFMLTVSIYGAQLSDKMTSVPVSWTIDYEDPEKSAFKKLVTDSCDTFSEYVKSQIPKGSVDGQCTSHIFQRPGSGSGVSISLTLSFIYVDVTQPDTVALKTELEKHFANFVTIHSHKITQAQFRINQKAIVIPTGDKDAIDGSKWKIIAIIALVALAIVVIGGFIYICVK
In the case of B1, the “glycan array binding signal (z-score)” value [1] is reported as -0.06, the “glycan array binding signal (z-score)” value [2] is reported as -0.076 and the “glycan array binding signal (z-score)” value [3] is reported as 0.294. For the same binder, the “glycan array binding signal (z-score)” value [4] was -1.17, the “glycan array binding signal (z-score)” value [5] was 0.908 and the “glycan array binding signal (z-score)” value [6] was -0.613. For the same binder, the “glycan array binding signal (z-score)” value (GlcNAc(b1-3)GalNAc) was -0.58, the “glycan array binding signal (z-score)” value (GlcNAc(b1-3)Man) was -0.625 and the “glycan array binding signal (z-score)” value [7] was -1.18. For the same binder, the “glycan array binding signal (z-score)” value [8] was 1.35, the “glycan array binding signal (z-score)” value [9] was -0.578 and the “glycan array binding signal (z-score)” value [10] was 1.17. The “glycan array binding signal (z-score)” value (GlcNAc(b1-4)GlcNAc) was 0.094, the “glycan array binding signal (z-score)” value [11] was -0.713 and the “glycan array binding signal (z-score)” value [12] was 0.984. For the same binder, the “glycan array binding signal (z-score)” value [13] was -0.652, the “glycan array binding signal (z-score)” value [14] was -1.62 and the “glycan array binding signal (z-score)” value [15] was -0.115. For the same binder, the “glycan array binding signal (z-score)” value (GlcNAc(b1-6)GalNAc) was -0.387, the “glycan array binding signal (z-score)” value [16] was 1.04 and the “glycan array binding signal (z-score)” value (Kdn(a2-3)Gal(b1-3)GalNAc) was 1.25. The “glycan array binding signal (z-score)” value (Kdn(a2-3)Gal(b1-3)GlcNAc) was 0.249, the “glycan array binding signal (z-score)” value (Kdn(a2-3)Gal(b1-4)Glc) was -1.13 and the “glycan array binding signal (z-score)” value (Kdn(a2-3)Gal(b1-4)GlcNAc) was 0.69. The “glycan array binding signal (z-score)” value [17] was 0.333, the “glycan array binding signal (z-score)” value (Kdn(a2-6)Gal(b1-4)GlcNAc) was -1.02 and the “glycan array binding signal (z-score)” value [18] was 1.35. The “glycan array binding signal (z-score)” value [19] was -0.903, the “glycan array binding signal (z-score)” value (Man(a1-2)Man(a1-3)Man) was -1.03 and the “glycan array binding signal (z-score)” value [20] was -2.13. For the same binder, the “glycan array binding signal (z-score)” value [21] was 0.433, the “glycan array binding signal (z-score)” value [22] was -0.987 and the “glycan array binding signal (z-score)” value [23] was -0.624. For the same binder, the “glycan array binding signal (z-score)” value [24] was -2.45, the “glycan array binding signal (z-score)” value [25] was -0.995 and the “glycan array binding signal (z-score)” value (Man(a1-3)[Man(a1-6)]Man) was 0.218. The “glycan array binding signal (z-score)” value [26] was 0.844, the “glycan array binding signal (z-score)” value [27] was -1.02 and the “glycan array binding signal (z-score)” value [28] was -0.013. The “glycan array binding signal (z-score)” value [29] was -0.51, the “glycan array binding signal (z-score)” value [30] was 1.76 and the “glycan array binding signal (z-score)” value (Man(a1-6)Man) was -0.118. The “glycan array binding signal (z-score)” value (Man(b1-4)GlcNAc) was -0.285, the “glycan array binding signal (z-score)” value (MurNAc(b1-4)GlcNAc) was -0.214 and the “glycan array binding signal (z-score)” value (Neu5Ac(a2-3)Gal) was 0.069.
